# Data reported in the supplement of paper PMC10849652.
# Sequences of proteins named here, by UniProt entry; tags and fusion partners are left off. A change or cut given only in a name is not applied to a line headed by its entry.
# UniProt P30533, whole entry, looked up: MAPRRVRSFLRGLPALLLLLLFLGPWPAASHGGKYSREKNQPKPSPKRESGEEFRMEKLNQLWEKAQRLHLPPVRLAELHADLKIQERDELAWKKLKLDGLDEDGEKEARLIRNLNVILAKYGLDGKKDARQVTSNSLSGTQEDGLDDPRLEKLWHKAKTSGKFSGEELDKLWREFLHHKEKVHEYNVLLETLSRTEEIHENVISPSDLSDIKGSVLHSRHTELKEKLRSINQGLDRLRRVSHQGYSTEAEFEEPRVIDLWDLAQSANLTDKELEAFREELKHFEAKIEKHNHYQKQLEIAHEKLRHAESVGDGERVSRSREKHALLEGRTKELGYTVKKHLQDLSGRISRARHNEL
# UniProt Q6P1A2: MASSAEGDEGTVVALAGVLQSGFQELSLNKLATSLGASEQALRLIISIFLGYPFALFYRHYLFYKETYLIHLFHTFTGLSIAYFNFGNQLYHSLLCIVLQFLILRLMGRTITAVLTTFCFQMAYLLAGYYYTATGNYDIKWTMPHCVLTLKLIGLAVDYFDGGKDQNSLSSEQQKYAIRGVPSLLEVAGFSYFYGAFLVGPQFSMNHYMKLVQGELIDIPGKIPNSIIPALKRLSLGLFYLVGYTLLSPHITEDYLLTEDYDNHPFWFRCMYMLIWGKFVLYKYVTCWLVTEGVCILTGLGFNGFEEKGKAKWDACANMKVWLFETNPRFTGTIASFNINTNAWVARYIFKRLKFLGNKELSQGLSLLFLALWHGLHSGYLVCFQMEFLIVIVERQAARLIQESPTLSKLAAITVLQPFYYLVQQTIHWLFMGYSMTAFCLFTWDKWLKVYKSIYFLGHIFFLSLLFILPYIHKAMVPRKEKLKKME
# UniProt Q9H0V9: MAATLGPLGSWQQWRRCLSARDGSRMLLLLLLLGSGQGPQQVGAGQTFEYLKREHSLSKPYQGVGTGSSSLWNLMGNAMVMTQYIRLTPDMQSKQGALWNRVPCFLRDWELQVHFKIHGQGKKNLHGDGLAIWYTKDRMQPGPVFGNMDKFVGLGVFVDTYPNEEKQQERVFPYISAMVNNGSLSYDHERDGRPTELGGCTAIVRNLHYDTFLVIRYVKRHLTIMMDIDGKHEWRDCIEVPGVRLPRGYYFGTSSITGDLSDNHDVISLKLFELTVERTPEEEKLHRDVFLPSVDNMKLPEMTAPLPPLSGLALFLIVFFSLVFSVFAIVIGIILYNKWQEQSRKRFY
# UniProt O14910: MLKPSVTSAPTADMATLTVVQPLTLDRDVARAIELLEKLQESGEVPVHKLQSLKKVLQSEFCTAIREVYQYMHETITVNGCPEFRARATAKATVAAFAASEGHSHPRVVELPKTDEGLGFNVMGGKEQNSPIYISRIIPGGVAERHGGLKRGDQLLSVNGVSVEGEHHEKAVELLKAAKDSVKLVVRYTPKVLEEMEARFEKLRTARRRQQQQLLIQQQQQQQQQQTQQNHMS
# UniProt Q7L5N7: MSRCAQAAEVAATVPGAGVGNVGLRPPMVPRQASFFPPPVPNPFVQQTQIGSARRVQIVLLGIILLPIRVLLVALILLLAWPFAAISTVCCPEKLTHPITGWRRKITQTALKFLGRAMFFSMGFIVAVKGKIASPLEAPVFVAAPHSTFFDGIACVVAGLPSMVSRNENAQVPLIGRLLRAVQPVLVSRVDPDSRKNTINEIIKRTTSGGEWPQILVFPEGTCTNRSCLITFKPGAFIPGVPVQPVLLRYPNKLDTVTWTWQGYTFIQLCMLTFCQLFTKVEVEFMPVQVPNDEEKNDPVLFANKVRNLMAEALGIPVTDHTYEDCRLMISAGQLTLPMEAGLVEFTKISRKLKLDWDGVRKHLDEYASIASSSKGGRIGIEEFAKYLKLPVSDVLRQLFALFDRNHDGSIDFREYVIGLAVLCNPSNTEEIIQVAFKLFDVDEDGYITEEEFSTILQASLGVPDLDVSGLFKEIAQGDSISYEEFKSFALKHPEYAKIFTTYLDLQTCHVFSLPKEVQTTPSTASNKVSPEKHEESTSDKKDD
# UniProt Q9H6V9: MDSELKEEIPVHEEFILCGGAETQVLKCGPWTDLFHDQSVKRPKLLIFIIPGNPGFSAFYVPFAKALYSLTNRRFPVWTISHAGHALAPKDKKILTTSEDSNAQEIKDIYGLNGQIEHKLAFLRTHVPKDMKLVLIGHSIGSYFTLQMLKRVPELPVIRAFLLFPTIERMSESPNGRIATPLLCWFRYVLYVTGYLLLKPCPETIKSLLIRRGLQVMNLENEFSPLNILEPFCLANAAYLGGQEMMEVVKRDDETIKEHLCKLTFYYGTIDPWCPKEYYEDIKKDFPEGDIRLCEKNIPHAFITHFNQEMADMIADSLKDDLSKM
# UniProt Q86WA8: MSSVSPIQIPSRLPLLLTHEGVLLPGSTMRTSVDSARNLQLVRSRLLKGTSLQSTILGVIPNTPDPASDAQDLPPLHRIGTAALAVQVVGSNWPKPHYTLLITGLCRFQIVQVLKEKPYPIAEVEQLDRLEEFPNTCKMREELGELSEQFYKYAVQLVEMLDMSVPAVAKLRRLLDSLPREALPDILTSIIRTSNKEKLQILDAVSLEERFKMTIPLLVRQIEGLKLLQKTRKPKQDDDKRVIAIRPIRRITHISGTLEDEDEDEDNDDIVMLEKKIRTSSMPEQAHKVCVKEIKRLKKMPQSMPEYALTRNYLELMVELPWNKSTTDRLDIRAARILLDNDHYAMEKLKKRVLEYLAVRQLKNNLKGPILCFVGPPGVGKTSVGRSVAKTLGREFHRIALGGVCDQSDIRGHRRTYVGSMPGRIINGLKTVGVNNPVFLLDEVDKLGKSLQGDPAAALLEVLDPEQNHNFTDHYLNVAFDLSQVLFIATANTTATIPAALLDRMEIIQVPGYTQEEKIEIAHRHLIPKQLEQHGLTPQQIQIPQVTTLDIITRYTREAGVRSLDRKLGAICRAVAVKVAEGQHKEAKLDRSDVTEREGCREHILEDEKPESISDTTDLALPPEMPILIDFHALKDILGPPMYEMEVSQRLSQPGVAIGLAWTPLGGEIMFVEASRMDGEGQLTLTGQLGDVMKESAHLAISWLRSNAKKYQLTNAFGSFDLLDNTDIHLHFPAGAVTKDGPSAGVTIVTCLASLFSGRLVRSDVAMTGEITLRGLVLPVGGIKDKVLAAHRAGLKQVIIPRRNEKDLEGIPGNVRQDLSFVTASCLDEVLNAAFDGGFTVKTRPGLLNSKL
# UniProt Q9BU23: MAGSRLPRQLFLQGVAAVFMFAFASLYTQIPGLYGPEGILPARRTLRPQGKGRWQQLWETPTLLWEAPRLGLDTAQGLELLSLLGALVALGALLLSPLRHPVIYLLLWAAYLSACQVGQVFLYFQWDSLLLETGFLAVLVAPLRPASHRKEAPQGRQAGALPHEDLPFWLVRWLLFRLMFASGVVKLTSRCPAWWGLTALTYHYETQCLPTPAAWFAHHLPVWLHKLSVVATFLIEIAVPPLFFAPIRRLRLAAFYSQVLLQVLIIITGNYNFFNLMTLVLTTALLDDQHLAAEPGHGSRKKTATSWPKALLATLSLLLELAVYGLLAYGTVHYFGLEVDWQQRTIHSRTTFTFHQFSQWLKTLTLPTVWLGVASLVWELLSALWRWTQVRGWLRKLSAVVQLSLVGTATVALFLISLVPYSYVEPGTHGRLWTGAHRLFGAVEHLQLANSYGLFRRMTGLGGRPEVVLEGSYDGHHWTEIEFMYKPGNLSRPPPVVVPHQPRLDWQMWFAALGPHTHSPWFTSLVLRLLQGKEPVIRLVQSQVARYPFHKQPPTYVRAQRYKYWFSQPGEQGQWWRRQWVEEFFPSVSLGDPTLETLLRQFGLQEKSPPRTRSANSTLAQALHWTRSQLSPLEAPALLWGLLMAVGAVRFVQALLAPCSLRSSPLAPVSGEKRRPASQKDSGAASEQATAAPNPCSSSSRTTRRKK
# UniProt Q8WVP7: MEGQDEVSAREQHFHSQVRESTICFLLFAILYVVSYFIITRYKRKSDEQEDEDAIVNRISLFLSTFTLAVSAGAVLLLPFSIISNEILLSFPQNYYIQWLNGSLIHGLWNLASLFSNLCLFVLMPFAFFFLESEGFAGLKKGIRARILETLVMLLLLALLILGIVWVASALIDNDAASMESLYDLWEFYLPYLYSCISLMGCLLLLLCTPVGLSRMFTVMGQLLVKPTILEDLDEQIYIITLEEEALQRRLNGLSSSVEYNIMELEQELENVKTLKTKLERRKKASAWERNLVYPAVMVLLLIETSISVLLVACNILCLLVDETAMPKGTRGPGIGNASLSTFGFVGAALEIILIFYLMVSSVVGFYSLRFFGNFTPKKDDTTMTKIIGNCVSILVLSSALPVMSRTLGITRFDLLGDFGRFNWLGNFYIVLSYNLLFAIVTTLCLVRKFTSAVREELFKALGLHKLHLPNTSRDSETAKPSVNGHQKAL
# UniProt Q9UGP4: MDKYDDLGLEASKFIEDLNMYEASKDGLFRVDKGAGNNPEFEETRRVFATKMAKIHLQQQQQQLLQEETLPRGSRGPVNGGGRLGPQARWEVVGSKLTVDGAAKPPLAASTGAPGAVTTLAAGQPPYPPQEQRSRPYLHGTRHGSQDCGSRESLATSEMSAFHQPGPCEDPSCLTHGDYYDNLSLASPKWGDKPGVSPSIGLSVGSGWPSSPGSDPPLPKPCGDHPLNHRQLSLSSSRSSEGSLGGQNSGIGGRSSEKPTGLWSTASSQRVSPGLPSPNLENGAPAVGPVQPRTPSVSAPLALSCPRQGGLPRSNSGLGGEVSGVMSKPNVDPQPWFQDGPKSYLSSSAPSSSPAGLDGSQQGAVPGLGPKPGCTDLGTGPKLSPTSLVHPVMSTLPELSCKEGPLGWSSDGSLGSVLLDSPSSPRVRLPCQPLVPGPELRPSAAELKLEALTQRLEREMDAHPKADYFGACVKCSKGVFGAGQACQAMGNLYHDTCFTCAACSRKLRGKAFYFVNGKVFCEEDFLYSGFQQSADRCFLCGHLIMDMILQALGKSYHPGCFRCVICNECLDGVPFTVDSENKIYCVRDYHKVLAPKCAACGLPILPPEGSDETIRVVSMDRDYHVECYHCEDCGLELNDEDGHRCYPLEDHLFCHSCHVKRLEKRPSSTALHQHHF
# UniProt Q6ZN17: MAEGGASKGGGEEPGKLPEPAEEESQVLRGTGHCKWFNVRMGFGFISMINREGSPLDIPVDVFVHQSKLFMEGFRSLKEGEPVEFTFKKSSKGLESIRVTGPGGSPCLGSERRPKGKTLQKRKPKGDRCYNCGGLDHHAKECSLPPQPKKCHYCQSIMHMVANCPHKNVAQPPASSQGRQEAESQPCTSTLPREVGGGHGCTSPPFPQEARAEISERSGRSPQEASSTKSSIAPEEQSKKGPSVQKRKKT
# UniProt Q9BRT6: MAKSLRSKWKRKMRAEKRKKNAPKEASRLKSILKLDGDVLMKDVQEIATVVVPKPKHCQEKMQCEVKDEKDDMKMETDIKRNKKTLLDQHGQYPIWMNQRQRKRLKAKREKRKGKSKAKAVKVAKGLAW
# UniProt Q86U70: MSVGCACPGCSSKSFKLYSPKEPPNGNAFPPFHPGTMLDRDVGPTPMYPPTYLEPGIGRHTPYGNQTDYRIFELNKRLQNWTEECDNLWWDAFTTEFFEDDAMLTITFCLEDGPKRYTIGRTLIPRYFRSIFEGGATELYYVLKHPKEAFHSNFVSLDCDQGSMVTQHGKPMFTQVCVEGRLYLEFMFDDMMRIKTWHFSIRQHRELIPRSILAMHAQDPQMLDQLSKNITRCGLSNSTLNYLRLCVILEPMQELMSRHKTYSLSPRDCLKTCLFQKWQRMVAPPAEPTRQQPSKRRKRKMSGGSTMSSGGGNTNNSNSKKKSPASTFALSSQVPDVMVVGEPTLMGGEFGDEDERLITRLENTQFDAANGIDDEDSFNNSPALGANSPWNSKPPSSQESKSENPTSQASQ
# The other results are listed elsewhere or left out. Residues, ends and D or L forms follow the SMILES beside them. *: point of attachment. Cbz = O=C(OCc1ccccc1)*
# Tests used:
# Assay in all cases: log2 fold change, soluble protein after heating vs DMSO (PISA); higher = thermal stabilisation; K562 cells, 10 uM, 30 min; active = over 0.2 and 3.5 SD of the protein, either way, in both replicates (recomputed)
# erlotinib = compound: C#Cc1cccc(Nc2ncnc3cc(OCCOC)c(OCCOC)cc23)c1 [erlotinib]
# In short: (§1)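 Aliquots of K562 cells (2×10^6 cells/mL) treated with 10 μM compound for 30 min were heated for 3 min over 48°C-58°C. After pooling and extraction in PBS with 0.5% NP-40 at 4°C, soluble protein from a 21,000xg, 90 min spin was quantified by TMTpro 16plex LC-MS/MS with channel sums equalised. Thermal stability is expressed against control samples, from duplicates, as a log2 fold change.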
# [1] = compound: C/C(=N\NC(=O)C1=CC(=CC=C1)S(=O)(=O)N2CCOCC2)/C3=C(C=CC(=C3)Cl)O
# In short: as §1
# [2] = compound: C1=CC(=C(C=C1Cl)C2=NC3=NC=CN=C3C(=N2)NC4=CC=NC=C4)F
# In short: as §1
# [3] = compound: C1=CC(=CC=C1C2=NC3=C(N2)C=C(C=C3)C(=O)N)OC4=CC=C(C=C4)Cl
# In short: as §1
# [4] = compound: C1=CC2=C(C=CC(=C2)/C=C\3/C(=O)NC(=NCC4=CC=CS4)S3)N=C1
# In short: as §1
# [5] = compound: C1=CC2=NC=CN=C2C=C1/C=C/3\C(=O)NC(=O)S3
# In short: as §1
# [6] = compound: C1=CC=C(C=C1)C2=NC(=C(N2)C3=CC=NC=C3)C4=CC(=C(C=C4)Cl)O
# In short: as §1
# [7] = compound: C1=CC=C2C(=C1)C3=NNC4=CC=CC(=C43)C2=O
# In short: as §1
# [8] = compound: C1CCN(C1)C(=O)NC2=CC=CC(=C2)NC3=NC=C(C(=N3)NCCC4=CN=CN4)Br
# In short: as §1
# [9] = compound: C1CN(CCC1(CC2=CC=C(C=C2)Cl)N)C3=NC=NC4=C3C=CN4
# In short: as §1
# IRAK-1-4 Inhibitor I = compound: C1COCCN1CCN2C3=CC=CC=C3N=C2NC(=O)C4=CC(=CC=C4)[N+](=O)[O-] [IRAK-1-4 Inhibitor I]
# In short: as §1
# ibrutinib = compound: C=CC(=O)N1CCC[C@@H](n2nc(-c3ccc(Oc4ccccc4)cc3)c3c(N)ncnc32)C1 [ibrutinib]
# In short: as §1
# [10] = compound: CC(=O)c1cnc2ccc(-c3cc(Cl)c(O)c(Cl)c3)nc2c1N[C@H]1CC[C@H](CN(C)C)CC1
# In short: as §1
# ralimetinib = compound: CC(C)(C)Cn1c(N)nc2ccc(-c3[nH]c(C(C)(C)C)nc3-c3ccc(F)cc3)nc21 [ralimetinib]
# In short: as §1
# [11] = compound: CC(C)(O)CC(=O)NCCn1ccc2ncnc(Nc3ccc(Oc4cccc(C(F)(F)F)c4)c(Cl)c3)c21
# In short: as §1
# [12] = compound: CC(C)C1=C2N=C(C=C(N2N=C1)NCC3=CC=CC=C3)NCCCCCCN
# In short: as §1
# [13] = compound: CC(C)C[C@@H](C=O)NC(=O)[C@H](CC(C)C)NC(=O)[C@H](CC(C)C)NC(=O)OCc1ccccc1
# In short: as §1
# pinometostat = compound: CC(C)N(C[C@H]1O[C@@H](n2cnc3c(N)ncnc32)[C@H](O)[C@@H]1O)[C@H]1C[C@@H](CCc2nc3cc(C(C)(C)C)ccc3[nH]2)C1 [pinometostat]
# In short: as §1
# [14] = compound: CC1=C(C(CC(=O)N1)C2=CC=C(C=C2)C(F)(F)F)C(=O)NC3=C(C=C4C(=C3)C=NN4)F
# In short: as §1
# [15] = compound: CC1=C(C2=C(C=C1)C(=O)C3=CC=CC=C3N2CCCN)C
# In short: as §1
Target,log2 fold change (erlotinib),log2 fold change [1],log2 fold change [2],log2 fold change [3],log2 fold change [4],log2 fold change [5],log2 fold change [6],log2 fold change [7],log2 fold change [8],log2 fold change [9],log2 fold change (IRAK-1-4 Inhibitor I),log2 fold change (ibrutinib),log2 fold change [10],log2 fold change (ralimetinib),log2 fold change [11],log2 fold change [12],log2 fold change [13],log2 fold change (pinometostat),log2 fold change [14],log2 fold change [15]
LRPAP1 (UniProt P30533),inactive: -0.076,inactive: 0.009,inactive: -0.012,inactive: 0.044,inactive: 0.007,inactive: 0.04,inactive: 0.236,inactive: -0.043,inactive: 0.024,inactive: 0.02,inactive: 0.005,inactive: -0.026,inactive: 0.007,inactive: 0.149,inactive: 0.03,inactive: 0.028,inactive: -0.074,inactive: -0.002,inactive: 0.022,inactive: -0.019
LMTK2 (UniProt Q8IWU2),inactive: -0.055,inactive: -0.032,inactive: -0.02,inactive: -0.051,inactive: 0.035,inactive: 0.133,inactive: 0.055,inactive: 0.011,inactive: -0.021,inactive: -0.009,inactive: -0.025,inactive: -0.237,inactive: -0.118,inactive: 0.059,inactive: 0.098,inactive: -0.185,inactive: 0.143,inactive: 0.113,–,inactive: -0.06
LPCAT3 (UniProt Q6P1A2),inactive: -0.062,inactive: 0.028,inactive: 0.032,inactive: 0.07,inactive: 0.152,inactive: 0.071,inactive: 0.211,inactive: 0.014,inactive: 0.059,inactive: 0.002,inactive: 0.014,inactive: -0.034,inactive: 0.099,inactive: 0.009,inactive: 0.148,active: -0.65,inactive: -0.004,inactive: 0.083,–,inactive: 0.03
LMAN2L isoform 2 (UniProt Q9H0V9),inactive: 0.051,inactive: 0.015,inactive: -0.027,inactive: -0.067,inactive: 0.036,inactive: 0.056,inactive: 0.01,inactive: 0.002,inactive: -0.064,inactive: 0.009,inactive: -0.004,inactive: -0.024,inactive: -0.018,inactive: -0.003,inactive: -0.026,inactive: -0.046,inactive: 0.019,inactive: 0.014,inactive: -0.037,inactive: 0.033
LIN7A (UniProt O14910),inactive: 0.044,inactive: -0.014,inactive: 0.078,inactive: 0.064,inactive: 0.048,inactive: 0.05,inactive: -0.04,inactive: -0.047,inactive: -0.077,inactive: 0.029,inactive: 0.137,inactive: 0.014,inactive: -0.024,inactive: -0.069,inactive: 0.038,inactive: 0.061,inactive: 0.035,inactive: -0.04,inactive: -0.104,inactive: -0.034
LEO1 (UniProt Q8WVC0),inactive: 0.132,inactive: 0.108,inactive: 0.194,inactive: -0.079,inactive: -0.006,inactive: 0.007,inactive: -0.035,inactive: -0.039,inactive: -0.076,inactive: -0.045,inactive: 0.134,inactive: 0.026,inactive: -0.027,inactive: -0.031,inactive: -0.044,inactive: -0.016,inactive: 0.068,inactive: 0.019,–,active: -0.394
LPCAT2 (UniProt Q7L5N7),inactive: -0.052,inactive: 0.182,inactive: 0.123,inactive: -0.061,inactive: 0.21,inactive: -0.015,inactive: 0.159,inactive: -0.022,inactive: 0.022,inactive: 0.036,inactive: -0.244,inactive: -0.22,inactive: -0.105,inactive: -0.141,inactive: -0.111,inactive: -0.16,inactive: 0,inactive: -0.127,–,inactive: 0.142
LDAH isoform 2 (UniProt Q9H6V9),inactive: 0.116,inactive: 0.052,inactive: -0.101,inactive: -0.041,inactive: 0.047,inactive: 0,inactive: 0.018,inactive: 0,inactive: 0.06,inactive: -0.006,inactive: 0.039,inactive: 0.066,inactive: -0.039,inactive: 0.077,active: 0.464,active: -0.286,inactive: 0.019,inactive: 0,–,inactive: 0.073
LONP2 (UniProt Q86WA8),inactive: 0.07,inactive: -0.111,inactive: 0.263,inactive: 0.131,inactive: -0.021,inactive: 0.065,inactive: 0.168,inactive: 0.067,inactive: -0.037,inactive: -0.002,inactive: -0.016,inactive: -0.023,inactive: -0.033,inactive: 0.103,inactive: -0.135,inactive: 0.004,active: -0.609,inactive: -0.008,–,inactive: -0.009
LMF2 (UniProt Q9BU23),inactive: -0.017,inactive: 0.002,inactive: -0.005,active: 0.434,inactive: 0.055,inactive: -0.012,inactive: 0.006,inactive: 0.052,inactive: -0.021,inactive: 0.021,inactive: 0.006,inactive: -0.035,inactive: 0.001,inactive: -0.008,inactive: -0.029,inactive: -0.152,inactive: 0.08,inactive: 0.008,–,inactive: 0.001
LMBR1 isoform 3 (UniProt Q8WVP7),inactive: 0.148,inactive: -0.016,inactive: -0.034,inactive: 0.071,inactive: -0.046,inactive: 0.081,inactive: -0.14,inactive: -0.013,inactive: 0.037,inactive: 0.15,inactive: -0.013,inactive: -0.006,inactive: -0.054,inactive: -0.02,inactive: -0.037,inactive: -0.453,inactive: -0.004,inactive: 0.012,–,inactive: -0.244
LIMD1 (UniProt Q9UGP4),inactive: 0.017,inactive: 0.058,inactive: 0.062,inactive: -0.019,inactive: -0.01,inactive: 0.077,inactive: 0.013,inactive: 0.006,inactive: -0.045,inactive: 0.042,inactive: 0.03,inactive: 0.033,inactive: -0.008,inactive: 0.035,inactive: -0.035,inactive: 0.044,inactive: -0.072,inactive: 0.016,–,inactive: -0.032
LIN28B (UniProt Q6ZN17),inactive: -0.026,inactive: -0.028,inactive: -0.21,inactive: 0.046,inactive: -0.096,inactive: 0.017,inactive: -0.006,inactive: -0.004,inactive: -0.023,inactive: -0.094,inactive: -0.082,inactive: 0.06,inactive: 0.077,inactive: 0.116,inactive: 0.11,inactive: 0.019,inactive: 0.137,inactive: 0.189,inactive: 0.064,inactive: -0.166
LLPH (UniProt Q9BRT6),inactive: -0.222,inactive: -0.148,inactive: -0.596,inactive: 0.053,inactive: -0.071,inactive: 0.036,inactive: -0.193,inactive: 0.057,inactive: 0.075,inactive: -0.18,inactive: -0.226,inactive: -0.025,inactive: 0.184,inactive: 0.235,inactive: 0.074,inactive: -0.051,inactive: 0.183,inactive: 0.33,inactive: -0.028,inactive: -0.607
LDB1 (UniProt Q86U70),inactive: -0.061,inactive: 0.018,inactive: -0.006,inactive: 0.042,inactive: -0.007,inactive: -0.013,inactive: 0.065,inactive: -0.01,inactive: 0.015,inactive: 0.021,inactive: 0.014,inactive: 0.01,inactive: -0.025,inactive: -0.035,inactive: -0.017,inactive: 0.031,inactive: -0.013,inactive: 0.026,inactive: 0.002,inactive: -0.01

# A second format for part of the listing above:
Target	log2 fold change (erlotinib)	log2 fold change [1]	log2 fold change [2]	log2 fold change [3]	log2 fold change [4]	log2 fold change [5]	log2 fold change [6]	log2 fold change [7]	log2 fold change [8]	log2 fold change [9]	log2 fold change (IRAK-1-4 Inhibitor I)	log2 fold change (ibrutinib)	log2 fold change [10]	log2 fold change (ralimetinib)	log2 fold change [11]	log2 fold change [12]	log2 fold change [13]	log2 fold change (pinometostat)	log2 fold change [14]	log2 fold change [15]
LMAN2L isoform 2 (UniProt Q9H0V9)	inactive: 0.051	inactive: 0.015	inactive: -0.027	inactive: -0.067	inactive: 0.036	inactive: 0.056	inactive: 0.01	inactive: 0.002	inactive: -0.064	inactive: 0.009	inactive: -0.004	inactive: -0.024	inactive: -0.018	inactive: -0.003	inactive: -0.026	inactive: -0.046	inactive: 0.019	inactive: 0.014	inactive: -0.037	inactive: 0.033
LIN7A (UniProt O14910)	inactive: 0.044	inactive: -0.014	inactive: 0.078	inactive: 0.064	inactive: 0.048	inactive: 0.05	inactive: -0.04	inactive: -0.047	inactive: -0.077	inactive: 0.029	inactive: 0.137	inactive: 0.014	inactive: -0.024	inactive: -0.069	inactive: 0.038	inactive: 0.061	inactive: 0.035	inactive: -0.04	inactive: -0.104	inactive: -0.034
